Data as given in PubChem BioAssay AID504764 (Drosophila RNAi Screening Center, 2011)
The screen tested about 22,000 reagents; this is a random part of those that have a named target and a result. Over the whole deposit, 403 (1.9%) got an active call. 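Unnormalised raw counts per well; ratio z-scores behind the hit calls and whether each hit raises or lowers signal are not deposited.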 The numbers tell different reagents against one gene apart. Names joined by + are all predicted targets of the reagent. Not given: the amount of reagent.

Screen: 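Genes whose knock-down alters Notch-dependent transcription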 (primary screen)
Cells: Drosophila Kc167 cells
Knock-down reagent: long dsRNA against Drosophila genes
Duration: about 5 days (4 days dsRNA, then 24 h after transfection)
Treatment: transfection of constitutively active membrane-tethered Notch lacking the extracellular domain, read 24 h later
Read-out: 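Firefly luciferase from an E(spl)m3 reporter with active Notch, plus control-promoter and uninduced reporter wells for normalisation; unnormalised counts, duplicate wells a and b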
Reading the numbers: induced reporter light, run 1, well a and induced reporter light, run 1, well b: higher = more light from the Notch target reporter with active Notch; control promoter light, run 1, well a and control promoter light, run 1, well b: higher = more light from the viral control promoter (cell number, transfection, viability); uninduced reporter light, run 1, well a: higher = more light from the Notch target reporter without active Notch
Rule for the call: 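Wells with low control signal or poorly matching duplicates excluded; duplicates averaged; per source plate, z beyond ±2 for induced/control log2 ratio or beyond ±1.8 for induced/uninduced marks a hit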
Meaning of the calls: active = modifier hit (raised or lowered Notch signal); inactive = not a hit

target gene | reagent no. | induced reporter light, run 1, well a | induced reporter light, run 1, well b | control promoter light, run 1, well a | control promoter light, run 1, well b | uninduced reporter light, run 1, well a | activity call
CG32483 | 1 | 1.88e5 | 1.77e5 | 1.74e5 | 1.73e5 | 15080 | inactive
CG32237 | 1 | 2.07e5 | 1.56e5 | 1.76e5 | 1.51e5 | 8050 | inactive
CG32237 | 2 | 1.54e5 | 1.74e5 | 1.85e5 | 2.17e5 | 6725 | inactive
CG13384 | 1 | 85370 | 96105 | 92320 | 1.03e5 | 8030 | inactive
CG4622 | 1 | 2.01e5 | 1.71e5 | 1.29e5 | 1.79e5 | 13700 | inactive
pygo | 1 | 1.22e5 | 1.41e5 | 1.33e5 | 1.35e5 | 10550 | inactive
CG31064 | 1 | 1.56e5 | 1.62e5 | 2.07e5 | 2.21e5 | 14370 | inactive
CG31064 | 2 | 1.56e5 | 1.56e5 | 2.31e5 | 2.04e5 | 13720 | inactive
CG31064 | 3 | 1.24e5 | 1.35e5 | 2.12e5 | 1.45e5 | 12120 | inactive
CG31064 | 4 | 88460 | 1.11e5 | 1.28e5 | 1.29e5 | 9505 | inactive
cib | 1 | 1.52e5 | 1.75e5 | 2.98e5 | 3.33e5 | 9850 | inactive
OdsH | 1 | 1.45e5 | 1.39e5 | 1.67e5 | 1.32e5 | 18955 | inactive
PyK | 1 | 1.63e5 | 1.39e5 | 1.55e5 | 1.73e5 | 10600 | inactive
LPCAT | 1 | 1.26e5 | 1.27e5 | 2.10e5 | 1.88e5 | 8945 | inactive
LPCAT | 2 | 85355 | 89285 | 1.35e5 | 1.36e5 | 7265 | inactive
CG11668 | 1 | 3.02e5 | 2.71e5 | 2.52e5 | 2.70e5 | 21455 | inactive
CG2003 | 1 | 97360 | 1.15e5 | 1.58e5 | 1.74e5 | 8770 | inactive
Non1 | 1 | 1.39e5 | 1.28e5 | 1.08e5 | 1.11e5 | 8560 | inactive
Enoph | 1 | 53055 | 61080 | 62190 | 59705 | 2900 | inactive
ND-B14.5B | 1 | 1.88e5 | 1.68e5 | 1.63e5 | 1.40e5 | 10675 | inactive
CG18266 | 1 | 2.08e5 | 2.07e5 | 2.53e5 | 2.80e5 | 18615 | inactive
Ykt6 | 1 | 1.57e5 | 1.76e5 | 2.37e5 | 1.87e5 | 12050 | inactive
kirre | 1 | 96675 | 98965 | 1.64e5 | 1.21e5 | 8088 | inactive
Myo28B1 | 1 | 1.55e5 | 1.56e5 | 1.68e5 | 2.06e5 | 10860 | inactive
cDIP | 1 | 1.93e5 | 2.38e5 | 2.83e5 | 2.58e5 | 16005 | inactive
armi | 1 | 81040 | 1.07e5 | 1.31e5 | 1.37e5 | 5780 | inactive
Asciz | 1 | 1.17e5 | 1.28e5 | 1.94e5 | 1.50e5 | 9885 | inactive
CheB53b | 1 | 79845 | 81245 | 1.26e5 | 1.05e5 | 7505 | inactive
CG10280 | 1 | 1.05e5 | 1.27e5 | 92590 | 86870 | 10860 | inactive
CG15317 | 1 | 98285 | 1.08e5 | 1.31e5 | 1.60e5 | 7400 | inactive
GstD4 | 1 | 77290 | 81095 | 74815 | 58515 | 4670 | inactive
CG32195 | 1 | 1.94e5 | 1.71e5 | 2.74e5 | 3.09e5 | 20490 | inactive

The list goes on; the last 5 above are carried over.
target gene | reagent no. | induced reporter light, run 1, well a | induced reporter light, run 1, well b | control promoter light, run 1, well a | control promoter light, run 1, well b | uninduced reporter light, run 1, well a | activity call
CheB53b | 1 | 79845 | 81245 | 1.26e5 | 1.05e5 | 7505 | inactive
CG10280 | 1 | 1.05e5 | 1.27e5 | 92590 | 86870 | 10860 | inactive
CG15317 | 1 | 98285 | 1.08e5 | 1.31e5 | 1.60e5 | 7400 | inactive
GstD4 | 1 | 77290 | 81095 | 74815 | 58515 | 4670 | inactive
CG32195 | 1 | 1.94e5 | 1.71e5 | 2.74e5 | 3.09e5 | 20490 | inactive
BBS9 | 1 | 43865 | 51315 | 46640 | 57365 | 4680 | inactive
lawc (retired record) | 1 | – | – | – | – | – | inactive
CG34433 | 1 | 1.28e5 | 1.22e5 | 1.89e5 | 2.01e5 | 12605 | inactive
alt | 1 | 1.68e5 | 1.55e5 | 2.04e5 | 1.81e5 | 14135 | inactive
CG14759 | 1 | 2.11e5 | 2.24e5 | 2.40e5 | 2.87e5 | 20120 | inactive
Blos4 | 1 | 1.28e5 | 1.08e5 | 1.50e5 | 1.48e5 | 5905 | inactive
RpS15Ab + RpS15Aa | 1 | 9855 | 9305 | 13815 | 11935 | 710 | inactive
RpS15Ab + RpS15Aa | 2 | 9095 | 11345 | 14615 | 14505 | 440 | inactive
CG15255 | 1 | 1.07e5 | 1.19e5 | 1.32e5 | 1.38e5 | 7715 | inactive
mab-21 | 1 | 1.52e5 | 1.86e5 | 3.70e5 | 3.33e5 | 13875 | inactive
CG4598 | 1 | 1.49e5 | 1.70e5 | 81780 | 97200 | 18630 | inactive
CG34367 | 1 | 1.16e5 | 1.21e5 | 70530 | 96485 | 18105 | inactive
CG34367 | 2 | 1.04e5 | 1.31e5 | 68230 | 93490 | 15065 | inactive
fl(2)d | 1 | 1.01e5 | 1.07e5 | 1.09e5 | 82400 | 10335 | active
MED10 | 1 | 1.82e5 | 1.42e5 | 1.61e5 | 2.01e5 | 9765 | inactive
CG30098 | 1 | 1.26e5 | 1.62e5 | 1.51e5 | 1.85e5 | 9160 | inactive
CG42580 | 1 | 88760 | 83475 | 92270 | 90760 | 7960 | inactive
CG9427 | 1 | 1.30e5 | 1.22e5 | 83530 | 89580 | 11635 | inactive
CG31510 | 1 | 2.04e5 | 2.25e5 | 2.04e5 | 2.31e5 | 18160 | inactive
Stim | 1 | 1.84e5 | 2.07e5 | 2.22e5 | 2.05e5 | 14270 | inactive
CG13131 | 1 | 88760 | 1.11e5 | 58550 | 86995 | 15260 | inactive
Prdm13 | 1 | 1.94e5 | 1.96e5 | 2.37e5 | 2.25e5 | 10085 | inactive
CG40485 | 1 | 88285 | 78500 | 1.11e5 | 1.19e5 | 10640 | inactive
CG11597 | 1 | 1.42e5 | 1.37e5 | 1.25e5 | 83705 | 15355 | inactive
CG12155 | 1 | 1.62e5 | 1.74e5 | 1.41e5 | 1.11e5 | 11270 | inactive
CG10352 | 1 | 90510 | 86795 | 1.22e5 | 1.40e5 | 6950 | inactive
Spn43Ad | 1 | 1.91e5 | 1.80e5 | 2.45e5 | 2.42e5 | 15665 | inactive
crc | 1 | 73695 | 48525 | 71110 | 59250 | 5650 | inactive
CG2269 | 1 | 1.67e5 | 1.43e5 | 1.56e5 | 1.50e5 | 15392 | inactive
hd | 1 | 78460 | 75090 | 79355 | 50415 | 6270 | inactive
BomBc2 | 1 | 1.10e5 | 93895 | 81305 | 74980 | 6130 | inactive
app | 1 | 2.09e5 | 1.91e5 | 1.52e5 | 1.84e5 | 13440 | inactive
app | 2 | 1.51e5 | 1.25e5 | 2.08e5 | 1.71e5 | 7055 | inactive
app | 3 | 2.73e5 | 1.84e5 | 3.33e5 | 2.56e5 | 15795 | inactive
